This passage reports MIC results from ChEMBL document CHEMBL6127022, “Acid-sensitive prodrugs; a promising approach for site-specific and targeted drug release” (Eur J Med Chem, 2024).

In experiment [1] the test system is Staphylococcus aureus. Nature of the experiment: microbe, parasite or virus in culture. As to conditions: ATCC 33592.
The test system of experiment [2] is Staphylococcus aureus. Nature of the experiment: microbe, parasite or virus in culture. Particulars: 12 h.

Molecules are shown by their SMILES. ≈ marks a conversion by molar mass, not a printed value.

`CN[C@H](CC(C)C)C(=O)N[C@H]1C(=O)N[C@@H](CC(N)=O)C(=O)N[C@H]2C(=O)N[C@H]3C(=O)N[C@H](C(=O)N[C@H](C(=O)O)c4cc(O)cc(O)c4-c4cc3ccc4O)[C@H](O)c3ccc(c(Cl)c3)Oc3cc2cc(c3O[C@@H]2O[C@H](CO)[C@@H](O)[C@H](O)[C@H]2O[C@H]2C[C@](C)(N)[C@H](O)[C@H](C)O2)Oc2ccc(cc2Cl)[C@H]1O` [VANCOMYCIN]: the MIC in experiment [1] stood at 62.5 µg/mL (≈ 43.1 µM); in experiment [2], 7.81 µg/mL (≈ 5.39 µM).
